Results are given in words; binding and its absence hold for the method and conditions named. In cells and extracts the contact can be indirect. Some binding calls cover weakened binding; strength is not graded here.

Amino acid sequences for entries named in this document (tags omitted).
UniProt Q16665: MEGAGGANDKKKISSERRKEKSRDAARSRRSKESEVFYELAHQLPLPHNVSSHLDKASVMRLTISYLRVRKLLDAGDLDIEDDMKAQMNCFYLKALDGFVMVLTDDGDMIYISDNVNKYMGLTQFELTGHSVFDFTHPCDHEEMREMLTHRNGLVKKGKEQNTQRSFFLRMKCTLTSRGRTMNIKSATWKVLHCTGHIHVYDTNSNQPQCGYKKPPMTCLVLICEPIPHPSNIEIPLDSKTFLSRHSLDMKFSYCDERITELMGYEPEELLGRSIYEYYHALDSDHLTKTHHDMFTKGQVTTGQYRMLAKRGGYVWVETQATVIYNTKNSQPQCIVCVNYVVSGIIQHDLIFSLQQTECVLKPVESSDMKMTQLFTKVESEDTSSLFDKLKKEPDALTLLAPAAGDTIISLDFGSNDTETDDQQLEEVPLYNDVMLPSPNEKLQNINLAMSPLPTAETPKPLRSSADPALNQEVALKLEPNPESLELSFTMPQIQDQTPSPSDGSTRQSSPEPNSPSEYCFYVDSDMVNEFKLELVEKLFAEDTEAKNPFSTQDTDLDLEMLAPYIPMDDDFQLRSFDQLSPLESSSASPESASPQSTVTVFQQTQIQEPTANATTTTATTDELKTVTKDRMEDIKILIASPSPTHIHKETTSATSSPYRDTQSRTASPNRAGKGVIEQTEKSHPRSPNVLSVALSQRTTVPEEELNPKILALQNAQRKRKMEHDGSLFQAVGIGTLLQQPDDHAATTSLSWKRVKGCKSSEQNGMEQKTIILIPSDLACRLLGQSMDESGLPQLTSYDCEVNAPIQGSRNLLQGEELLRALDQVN
UniProt Q92793: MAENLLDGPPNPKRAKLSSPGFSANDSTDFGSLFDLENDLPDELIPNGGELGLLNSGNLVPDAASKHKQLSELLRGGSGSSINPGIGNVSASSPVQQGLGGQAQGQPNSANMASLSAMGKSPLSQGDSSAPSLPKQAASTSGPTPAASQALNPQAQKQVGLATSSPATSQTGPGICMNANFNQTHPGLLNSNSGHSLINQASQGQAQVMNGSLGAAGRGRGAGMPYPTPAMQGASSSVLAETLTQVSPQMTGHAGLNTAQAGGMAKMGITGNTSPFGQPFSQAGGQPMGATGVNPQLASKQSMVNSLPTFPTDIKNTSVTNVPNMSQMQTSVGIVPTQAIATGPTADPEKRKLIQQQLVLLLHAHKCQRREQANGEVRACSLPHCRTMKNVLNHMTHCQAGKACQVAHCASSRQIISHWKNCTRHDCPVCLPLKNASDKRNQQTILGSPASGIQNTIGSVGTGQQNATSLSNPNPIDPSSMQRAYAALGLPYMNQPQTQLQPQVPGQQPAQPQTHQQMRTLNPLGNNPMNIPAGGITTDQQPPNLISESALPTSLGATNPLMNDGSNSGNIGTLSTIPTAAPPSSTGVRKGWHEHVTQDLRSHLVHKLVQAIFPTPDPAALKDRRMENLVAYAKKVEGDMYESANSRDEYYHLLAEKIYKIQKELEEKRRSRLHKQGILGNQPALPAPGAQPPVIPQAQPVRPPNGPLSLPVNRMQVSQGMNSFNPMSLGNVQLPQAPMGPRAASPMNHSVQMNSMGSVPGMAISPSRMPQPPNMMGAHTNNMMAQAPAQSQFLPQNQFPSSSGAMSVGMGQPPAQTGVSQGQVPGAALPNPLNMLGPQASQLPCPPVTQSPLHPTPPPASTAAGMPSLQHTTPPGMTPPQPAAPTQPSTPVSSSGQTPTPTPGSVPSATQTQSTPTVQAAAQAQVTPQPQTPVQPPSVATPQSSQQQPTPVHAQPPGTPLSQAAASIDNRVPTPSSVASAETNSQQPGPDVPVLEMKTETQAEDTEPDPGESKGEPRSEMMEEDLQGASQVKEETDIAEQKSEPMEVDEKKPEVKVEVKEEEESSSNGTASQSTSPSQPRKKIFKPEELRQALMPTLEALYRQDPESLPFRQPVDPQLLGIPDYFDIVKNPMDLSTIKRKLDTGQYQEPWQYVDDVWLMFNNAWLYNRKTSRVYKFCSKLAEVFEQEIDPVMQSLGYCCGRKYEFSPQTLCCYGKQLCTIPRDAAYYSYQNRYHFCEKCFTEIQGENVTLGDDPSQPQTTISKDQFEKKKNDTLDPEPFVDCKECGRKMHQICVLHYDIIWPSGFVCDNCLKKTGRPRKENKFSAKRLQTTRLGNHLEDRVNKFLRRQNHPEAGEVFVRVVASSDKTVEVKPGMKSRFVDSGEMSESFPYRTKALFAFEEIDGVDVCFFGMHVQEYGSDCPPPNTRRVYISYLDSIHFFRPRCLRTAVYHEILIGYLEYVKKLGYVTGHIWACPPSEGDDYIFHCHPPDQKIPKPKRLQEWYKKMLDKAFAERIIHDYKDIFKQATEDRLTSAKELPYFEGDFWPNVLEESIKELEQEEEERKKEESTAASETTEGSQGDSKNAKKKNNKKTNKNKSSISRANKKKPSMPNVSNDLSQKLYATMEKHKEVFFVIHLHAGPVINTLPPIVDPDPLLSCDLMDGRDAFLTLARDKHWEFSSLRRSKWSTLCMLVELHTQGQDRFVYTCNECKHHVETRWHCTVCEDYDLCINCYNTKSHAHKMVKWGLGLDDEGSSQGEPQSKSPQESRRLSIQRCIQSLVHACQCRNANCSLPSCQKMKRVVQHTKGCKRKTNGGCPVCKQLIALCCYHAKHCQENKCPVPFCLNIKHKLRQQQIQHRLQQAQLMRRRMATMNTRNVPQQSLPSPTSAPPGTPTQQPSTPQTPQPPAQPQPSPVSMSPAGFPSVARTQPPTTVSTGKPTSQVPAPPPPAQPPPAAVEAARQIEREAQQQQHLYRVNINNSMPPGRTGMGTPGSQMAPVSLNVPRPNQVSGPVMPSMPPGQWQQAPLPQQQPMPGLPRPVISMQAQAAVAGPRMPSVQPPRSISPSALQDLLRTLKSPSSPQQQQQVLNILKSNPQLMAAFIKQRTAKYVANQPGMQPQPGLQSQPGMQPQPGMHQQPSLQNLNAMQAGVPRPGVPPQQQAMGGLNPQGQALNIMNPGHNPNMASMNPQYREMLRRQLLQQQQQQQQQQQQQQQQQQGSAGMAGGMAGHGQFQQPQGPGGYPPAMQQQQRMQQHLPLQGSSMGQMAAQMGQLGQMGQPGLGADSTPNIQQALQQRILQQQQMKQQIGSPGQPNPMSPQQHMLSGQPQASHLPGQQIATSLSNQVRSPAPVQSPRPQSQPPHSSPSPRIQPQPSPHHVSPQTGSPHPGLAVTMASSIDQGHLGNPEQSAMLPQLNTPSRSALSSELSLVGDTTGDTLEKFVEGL

For this experiment, the target named is HIF-1α (UniProt Q16665). The experiment can be described thus: co-IP; co-immunoprecipitation from total cell protein extracts, performed as previously described (refs 38, 48, 49); IgG as control; cells, oxygen condition and precipitating antibody not given.

In the case of CBP (from UniProt Q92793 1-2442), the binding result is recorded as “binds”.

B1: ZMIZ1 (protein, UniProt Q9ULJ6 1-1067)
chain: MNSMDRHIQQTNDRLQCIKQHLQNPANFHNAATELLDWCGDPRAFQRPFEQSLMGCLTVVSRVAAQQGFDLDLGYRLLAVCAANRDKFTPKSAALLSSWCEELGRLLLLRHQKSRQSDPPGKLPMQPPLSSMSSMKPTLSHSDGSFPYDSVPWQQNTNQPPGSLSVVTTVWGVTNTSQSQVLGNPMANANNPMNPGGNPMASGMTTSNPGLNSPQFAGQQQQFSAKAGPAQPYIQQSMYGRPNYPGSGGFGASYPGGPNAPAGMGIPPHTRPPADFTQPAAAAAAAAVAAAAATATATATATVAALQETQNKDINQYGPMGPTQAYNSQFMNQPGPRGPASMGGSMNPASMAAGMTPSGMSGPPMGMNQPRPPGISPFGTHGQRMPQQTYPGPRPQSLPIQNIKRPYPGEPNYGNQQYGPNSQFPTQPGQYPAPNPPRPLTSPNYPGQRMPSQPSSGQYPPPTVNMGQYYKPEQFNGQNNTFSGSSYSNYSQGNVNRPPRPVPVANYPHSPVPGNPTPPMTPGSSIPPYLSPSQDVKPPFPPDIKPNMSALPPPPANHNDELRLTFPVRDGVVLEPFRLEHNLAVSNHVFHLRPTVHQTLMWRSDLELQFKCYHHEDRQMNTNWPASVQVSVNATPLTIERGDNKTSHKPLHLKHVCQPGRNTIQITVTACCCSHLFVLQLVHRPSVRSVLQGLLKKRLLPAEHCITKIKRNFSSVAASSGNTTLNGEDGVEQTAIKVSLKCPITFRRIQLPARGHDCKHVQCFDLESYLQLNCERGTWRCPVCNKTALLEGLEVDQYMWGILNAIQHSEFEEVTIDPTCSWRPVPIKSDLHIKDDPDGIPSKRFKTMSPSQMIMPNVMEMIAALGPGPSPYPLPPPPGGTNSNDYSSQGNNYQGHGNFDFPHGNPGGTSMNDFMHGPPQLSHPPDMPNNMAALEKPLSHPMQETMPHAGSSDQPHPSIQQGLHVPHPSSQSGPPLHHSGAPPPPPSQPPRQPPQAAPSSHPHSDLTFNPSSALEGQAGAQGASDMPEPSLDLLPELTNPDELLSYLDPPDLPSNSNDDLLSLFENN
For B1, the binding entry is listed as “binds”.

The values above are taken from article PMC9716733.
